Screen size: about 220,000 compounds; about 2,400 (1.1%) were called active. Inconclusive means that the source gave no clear call. Such entries were picked first, then a sample of the others. The call rests on the fitted dose curve; in most records, active means well fitted inhibition curve with a large enough effect; inconclusive means small, poorly fitted or top-dose-only effect, or effect the other way; inactive means no such curve, though single readings can be large or run the other way. Potencies beside an inconclusive call are fits to weak or partial responses and may not hold up.
Assay: qHTS Multiplex Assay to Identify Dual Action Probes in a Cell Model of Huntington: Aggregate Formation (GFP); further: nearly all actives have a fitted effect of over 60% in size
Details: PC12 HttQ103-GFP aggregates, Acumen cytometry, 40 h; activity change, negative = inhibition: at 46.1 µM (top of the series) unless noted
Procedure, shortened: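 Steps: seed 1500 PC12 HTTQ103-GFP cells/well; add tebufenozide, 100 nM final; add compound titration; add ATPLite reagent; quantify GFP aggregates by laser scanning cytometry.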
On the % scale 0 is the no-effect control and ±100 the full control effect; potency means the concentration at half of the fitted maximal effect.

Compound | Potency | activity change, negative = inhibition
O=C(N/N=C/c1ccc([N+](=O)[O-])o1)c1cccc(S(=O)(=O)N2CCOCC2)c1 | inconclusive: 35.5 µM [inhibitor, single point] | –
CCCC1=Nc2cc(C(=O)NCCCOCC)ccc2Sc2ccccc21 | inconclusive: 5.01 µM [activator, partial curve] | –
O=C1Nc2ccccc2C1(O)C/C(=N/O)c1ccccc1 (stereo unspecified) | inconclusive: 2.82 µM [activator, partial curve] | –
Cc1c(OCc2ccccc2)c(=O)ccn1Cc1ccccc1 | inconclusive: 35.5 µM [inhibitor, single point] | –
CC(NC(=O)c1nn(C)c(=O)c2ccccc12)c1ccccc1 (stereo unspecified) | inconclusive: 15.8 µM [inhibitor, partial curve] | –
Cc1nn(CCC(=O)NNC(=S)NCC(C)C)c(C)c1Br | inconclusive: 7.08 µM [activator, partial curve] | –
Cc1ccc(-c2csc(NC(=O)c3ccc4c(=O)n5c(nc4c3)CCCCC5)n2)cc1 | inconclusive: 2.82 µM [inhibitor, full curve, poor fit] | –
CCn1nnnc1-c1ccc(OC)c(S(=O)(=O)NCc2ccccc2)c1 | – | inactive: 3.18%
Cc1c(O)ccc(NS(=O)(=O)c2ccccc2)c1C | inconclusive: 12.6 µM [activator, partial curve] | –
COc1ccc(OC)c(NC(=O)Cn2c(CCC(=O)O)ccc2-c2ccccc2)c1 | inconclusive: 35.5 µM [activator, single point] | –
COc1cccc(N2CCN(c3ncnc4c3[nH]c3ccc(F)cc34)CC2C)c1 (stereo unspecified) | active: 6.31 µM | –
N#Cc1c(NC(=O)c2ccc(Cn3cc(Br)cn3)o2)sc2c1CCCCC2 | inconclusive: 35.5 µM [inhibitor, single point] | –
O=C(Nc1nc(-c2cc(Cl)sc2Cl)cs1)c1cccs1 | inconclusive: 35.5 µM [inhibitor, single point] | –
O=c1[nH]c2ccccc2c(O)c1-c1ccccc1 | – | inactive: 18.1% [at 9.22 µM]
COc1cc(/C=N/OCC(=O)NC23CC4CC(CC(C4)C2)C3)ccc1OCc1ccccc1 | inconclusive: 35.5 µM [inhibitor, single point] | –
O=C(CN1C(=O)COc2ccccc21)NCCN1CCC(Cc2ccccc2)CC1 | inconclusive: 0.0355 µM [inhibitor, full curve, poor fit] | –
O=C(CN1CCN(S(=O)(=O)c2ccc(Br)cc2)CC1)N/N=C/c1cc([N+](=O)[O-])ccc1Cl | inconclusive: 0.562 µM [activator, full curve, poor fit] | –
c1ccc(-c2nnc(-c3ccccn3)nc2NC2CCCCC2)cc1 | active: 3.55 µM | –
C=C1C(=O)O[C@H]2C1CC[C@@](C)(O)C13C=CC(C)(C21)C1(C3)C(=O)O[C@@H]2C3C(C)=CCC3[C@](C)(O)C[C@H](OC(C)=O)C21 (stereo partly specified) | inconclusive: 2.82 µM [activator, full curve] | –
CCC(c1nnnn1C1CCCC1)N(Cc1cccs1)Cc1cc2cccc(C)c2[nH]c1=O (stereo unspecified) | inconclusive: 12.6 µM [inhibitor, single point] | –
CC(C)c1ccc(NC(=O)C(c2ccc3c(c2)OCO3)N2CCCCC2)cc1 (stereo unspecified) | inconclusive: 35.5 µM [inhibitor, single point] | –

Compound | Potency | activity change, negative = inhibition
O=C(CSc1nc2cc(S(=O)(=O)N3CCOCC3)ccc2o1)NC1CCCc2ccccc21 (stereo unspecified) | – | inactive: 21.8%
Cc1ccc(/C=N\NC(=O)C2COc3cc4ccccc4cc3O2)o1 (stereo unspecified) | – | inactive: -7.55%
CCCCC(CC)CN=C(N)NC(N)=NCCCCCCN=C(N)NC(N)=NCC(CC)CCCC (stereo unspecified) | inconclusive: 15.8 µM [inhibitor, partial curve, poor fit] | –
O=C(CN(c1ccc(Cl)c(Cl)c1)S(=O)(=O)c1ccccc1)N1CCc2ccccc2C1 | inconclusive: 15.8 µM [inhibitor, single point] | –
CCN(CC)S(=O)(=O)c1cccc(C(=O)N[C@H](C(=O)NCc2ccc(Cl)cc2)C(C)C)c1 | inconclusive: 0.562 µM [inhibitor, full curve, poor fit] | –
O=C(c1cn(-c2ccccc2)nc1-c1ccccc1)n1nnc2ccccc21 | inconclusive: 3.98 µM [activator, full curve] | –
COC(=O)CN(c1ccc(OC)cc1)S(=O)(=O)c1c(C)noc1C | inconclusive: 11.2 µM [inhibitor, single point] | –
CC(C)(C)c1ccc(NC(=O)Nc2ccc(F)cc2)cc1 | inconclusive: 12.6 µM [inhibitor, single point] | –
CNC(=O)CN(Cc1ccccc1)S(=O)(=O)c1ccccc1 | – | inactive: 4.58%
O=C(Nc1ccc(N2CCN(C(=O)c3ccccc3)CC2)cc1)c1ccc(Br)o1 | inconclusive: 17.8 µM [inhibitor, single point] | –
Cc1ccc(N2C(=S)NC3c4cc(Cl)ccc4OC2(C)C3C(=O)N(C)C)cc1 (stereo unspecified) | inconclusive: 0.316 µM [activator, partial curve] | –
CCC(=O)Nc1ccc(NC(=S)Nc2ccccc2)cc1 | – | inactive: -4.41%
O=C1NC(=O)/C(=C\c2ccc(N3CCOCC3)o2)N1 | – | inactive: -25.4%
COC(=O)c1ccc(-n2c(C)cc(C(=O)CCl)c2C)cc1 | inconclusive: 35.5 µM [inhibitor, single point] | –
Cc1cc(C(=O)CSc2nnc(-c3ccccc3F)o2)c(C)n1Cc1cccs1 | inconclusive: 35.5 µM [inhibitor, single point] | –
COc1ccccc1Oc1coc2c(CN(C)C)c(O)ccc2c1=O | – | inactive: -0.964%
CCOC(=O)c1c(CN2CCOCC2)n(-c2ccccc2)c2cc(Br)c(O)cc12 | inconclusive: 25.1 µM [inhibitor, single point] | –
O=C1CC(N(CCc2ccccc2)C(=S)Nc2cc(Cl)ccc2Cl)C(=O)N1c1c(Cl)cccc1Cl (stereo unspecified) | inconclusive: 11.2 µM [inhibitor, single point] | –
CCc1sc(/C=C(/C#N)C(N)=S)cc1[N+](=O)[O-] | – | inactive: 9.01%
CCc1cc2c(SCC(=O)Nc3ncc(Cl)c(C)c3Cl)ncnc2s1 | inconclusive: 35.5 µM [inhibitor, partial curve] | –

Entries from the list above with a cyano group (2):
Compound | Potency | activity change, negative = inhibition
N#Cc1c(NC(=O)c2ccc(Cn3cc(Br)cn3)o2)sc2c1CCCCC2 | inconclusive: 35.5 µM [inhibitor, single point] | –
CCc1sc(/C=C(/C#N)C(N)=S)cc1[N+](=O)[O-] | – | inactive: 9.01%

Source: PubChem BioAssay AID1688 (National Center for Advancing Translational Sciences (NCATS), 2009)
